PubChem BioAssay AID1259260 – Sanger Institute, 2017

Assay: 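Kinases whose knock-down kills colorectal cancer cells or boosts drug effects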 (primary screen)
Cells: human NCI-H716 colorectal cancer cells
Reagents: siRNA pool against human genes
Conditions: anchor drugs BYL719 (alpelisib) 1 µM, cetuximab 5 µg/ml or trametinib 10 nM, each at a dose chosen to harm viability only mildly; DMSO vehicle for the knock-down-alone arm
Detection: 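Mean viability over replicates against non-targeting siRNA, robust z-score without drug, and per-drug synergy comparing combined with single treatments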
Scale: viability robust z-score, siRNA alone: higher = more surviving cells; below -3 called essential
Call rule: 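Essential when the robust z-score for knock-down alone falls below -3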
Meaning of the calls: active = essential (knock-down alone lowers viability); inactive = no essential effect
The whole screen tested 794 reagents; shown is a part drawn at random. In the full data, 13 (1.6%) are marked active. 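Calls reflect only knock-down without drug; synergy above 0.15 was grouped apart and does not change the call.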 Entries without a mark were called inactive. Further read-outs or replicates are left out here. No sequences are given here. The record does not give: the amount of reagent, the time to read-out.

ALPK1
- viability robust z-score, siRNA alone: 0.602

RIPK4
- viability robust z-score, siRNA alone: 0.421

PIK3R5
- viability robust z-score, siRNA alone: 0.602

CTCF
- viability robust z-score, siRNA alone: 0.602

PAK5
- viability robust z-score, siRNA alone: -0.631

TJP2
- viability robust z-score, siRNA alone: 0.602

GALK2
- viability robust z-score, siRNA alone: -0.0697

PASK
- viability robust z-score, siRNA alone: 0.602

ANKK1
- viability robust z-score, siRNA alone: 0.602

MAK
- viability robust z-score, siRNA alone: 0.602

PI4KA
- viability robust z-score, siRNA alone: 0.147

ETNK2
- viability robust z-score, siRNA alone: -0.317

STKLD1
- viability robust z-score, siRNA alone: -0.707

IGF2R
- viability robust z-score, siRNA alone: 0.602

STRADB
- viability robust z-score, siRNA alone: 0.602

PTK2B
- viability robust z-score, siRNA alone: -0.333

PANK1
- viability robust z-score, siRNA alone: 0.602

CKMT2
- viability robust z-score, siRNA alone: 0.602

STK26
- viability robust z-score, siRNA alone: -0.123

PTK7
- viability robust z-score, siRNA alone: 0.602

CILK1
- viability robust z-score, siRNA alone: 0.525

GK2
- viability robust z-score, siRNA alone: 0.602

BUB1
- viability robust z-score, siRNA alone: 0.602

TBX3
- viability robust z-score, siRNA alone: 0.602

MAPK10
- viability robust z-score, siRNA alone: 0.602

ERBB4
- viability robust z-score, siRNA alone: 0.602

GCK
- viability robust z-score, siRNA alone: 0.0298

CLK3
- viability robust z-score, siRNA alone: 0.362

DGKA
- viability robust z-score, siRNA alone: 0.602

MAPK3
- viability robust z-score, siRNA alone: -1.58

CDC73
- viability robust z-score, siRNA alone: 0.602

CRKL
- viability robust z-score, siRNA alone: 0.602

EPHA4
- viability robust z-score, siRNA alone: -0.695

FLT3
- viability robust z-score, siRNA alone: -1.65

CHD9
- viability robust z-score, siRNA alone: 0.602

CIT
- viability robust z-score, siRNA alone: -2.67
